Assay results from patent US11197862B2, “Methods of preventing toxicity of platinum drugs” (XOMICS BIOPHARMA, INC., priority 2015, dated 2021).
Some of these results come from one statement about several compounds together.

Molecular target: T1, OCT2 (Homo sapiens, UniProt O15244)
T1 sequence (O15244 1-555): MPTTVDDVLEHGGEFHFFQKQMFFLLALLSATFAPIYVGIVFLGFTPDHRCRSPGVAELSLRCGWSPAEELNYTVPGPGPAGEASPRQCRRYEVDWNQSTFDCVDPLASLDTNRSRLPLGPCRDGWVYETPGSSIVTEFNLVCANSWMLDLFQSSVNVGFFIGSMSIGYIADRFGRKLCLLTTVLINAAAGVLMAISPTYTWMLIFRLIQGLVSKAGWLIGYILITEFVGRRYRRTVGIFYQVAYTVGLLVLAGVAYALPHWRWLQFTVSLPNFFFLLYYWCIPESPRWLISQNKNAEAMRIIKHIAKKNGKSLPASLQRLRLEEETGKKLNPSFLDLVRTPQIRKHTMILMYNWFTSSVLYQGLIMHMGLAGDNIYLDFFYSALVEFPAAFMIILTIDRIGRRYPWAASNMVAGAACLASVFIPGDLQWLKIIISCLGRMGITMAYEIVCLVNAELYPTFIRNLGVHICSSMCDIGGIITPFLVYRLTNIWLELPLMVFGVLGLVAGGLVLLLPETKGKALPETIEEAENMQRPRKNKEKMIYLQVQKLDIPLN
Assay: Inhibition of OCT2-mediated oxaliplatin transport in 100% human serum or HBSS containing 4% BSA (IC50,app)
Conditions: from IC50,app of Table 4

Compound: C[C@@H]1CCO[C@H]2Cn3cc(C(=O)NCc4ccc(F)cc4F)c(=O)c(O)c3C(=O)N12 [Dolutegravir]
- fold higher potency (selectivity) for OCT2 over OCT1, OCT3 and MATE1 in transporting oxaliplatin: > 10 fold
